# Laboratory results: the supplement of paper PMC12819154, “High-throughput peptide-centric local stability assay extends protein–ligand identification to membrane proteins, tissues and bacteria” (Nature Structural & Molecular Biology, 2025)
# Chains of the proteins cited; added tags and fusions are not shown. Lines headed by an entry give the natural chain unless they say otherwise; changes in a name come on top.
# UniProt P70296: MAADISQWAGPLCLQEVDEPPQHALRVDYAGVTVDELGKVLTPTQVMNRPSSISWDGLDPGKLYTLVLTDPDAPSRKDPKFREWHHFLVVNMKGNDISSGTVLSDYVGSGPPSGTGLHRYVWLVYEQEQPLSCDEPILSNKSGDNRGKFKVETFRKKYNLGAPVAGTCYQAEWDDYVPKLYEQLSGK
# UniProt P61458: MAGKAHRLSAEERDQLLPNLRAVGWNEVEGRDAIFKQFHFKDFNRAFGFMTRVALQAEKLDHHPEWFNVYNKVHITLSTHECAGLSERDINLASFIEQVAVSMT
# UniProt P57716, whole entry: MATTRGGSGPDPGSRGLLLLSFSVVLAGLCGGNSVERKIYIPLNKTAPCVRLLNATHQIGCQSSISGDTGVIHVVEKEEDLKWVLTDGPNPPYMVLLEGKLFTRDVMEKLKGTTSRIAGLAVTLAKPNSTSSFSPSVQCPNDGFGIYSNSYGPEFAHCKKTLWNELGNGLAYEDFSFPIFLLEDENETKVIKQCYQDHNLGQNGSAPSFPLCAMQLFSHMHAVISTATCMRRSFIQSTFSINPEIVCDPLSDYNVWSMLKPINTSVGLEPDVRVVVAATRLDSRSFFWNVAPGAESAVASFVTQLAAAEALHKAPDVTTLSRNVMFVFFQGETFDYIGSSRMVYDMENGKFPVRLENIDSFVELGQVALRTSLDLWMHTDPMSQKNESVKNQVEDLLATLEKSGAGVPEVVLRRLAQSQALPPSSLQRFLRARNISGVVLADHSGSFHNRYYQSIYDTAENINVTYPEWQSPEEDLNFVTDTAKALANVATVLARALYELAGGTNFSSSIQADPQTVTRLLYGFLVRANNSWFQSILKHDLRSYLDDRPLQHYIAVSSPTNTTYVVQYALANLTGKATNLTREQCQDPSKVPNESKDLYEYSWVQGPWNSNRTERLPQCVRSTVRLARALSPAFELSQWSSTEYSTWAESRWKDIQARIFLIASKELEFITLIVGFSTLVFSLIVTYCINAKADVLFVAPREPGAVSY
# UniProt P97314: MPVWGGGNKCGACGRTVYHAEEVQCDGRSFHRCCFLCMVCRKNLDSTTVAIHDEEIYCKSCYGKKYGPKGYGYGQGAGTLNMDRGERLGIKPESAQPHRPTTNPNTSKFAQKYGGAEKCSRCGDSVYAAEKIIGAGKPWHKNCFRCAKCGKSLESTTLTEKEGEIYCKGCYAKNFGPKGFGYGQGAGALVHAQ
# UniProt P57776: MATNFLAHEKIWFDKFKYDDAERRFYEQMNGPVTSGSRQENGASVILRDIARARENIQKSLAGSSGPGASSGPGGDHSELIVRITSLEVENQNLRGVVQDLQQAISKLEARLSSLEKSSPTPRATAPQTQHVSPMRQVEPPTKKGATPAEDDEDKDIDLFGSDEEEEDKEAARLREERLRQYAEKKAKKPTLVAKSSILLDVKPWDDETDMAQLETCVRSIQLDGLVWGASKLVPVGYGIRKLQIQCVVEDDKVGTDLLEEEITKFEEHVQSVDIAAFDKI
# UniProt P62869, whole entry: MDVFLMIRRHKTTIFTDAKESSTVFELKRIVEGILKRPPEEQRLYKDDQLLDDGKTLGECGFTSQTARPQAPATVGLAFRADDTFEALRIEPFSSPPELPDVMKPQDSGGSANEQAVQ
# UniProt P97493: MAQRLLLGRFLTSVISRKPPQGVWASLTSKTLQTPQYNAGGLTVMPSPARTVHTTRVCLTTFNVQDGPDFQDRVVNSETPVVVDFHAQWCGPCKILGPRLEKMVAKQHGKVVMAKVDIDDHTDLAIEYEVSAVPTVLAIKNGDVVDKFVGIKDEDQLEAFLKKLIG
# UniProt P97298: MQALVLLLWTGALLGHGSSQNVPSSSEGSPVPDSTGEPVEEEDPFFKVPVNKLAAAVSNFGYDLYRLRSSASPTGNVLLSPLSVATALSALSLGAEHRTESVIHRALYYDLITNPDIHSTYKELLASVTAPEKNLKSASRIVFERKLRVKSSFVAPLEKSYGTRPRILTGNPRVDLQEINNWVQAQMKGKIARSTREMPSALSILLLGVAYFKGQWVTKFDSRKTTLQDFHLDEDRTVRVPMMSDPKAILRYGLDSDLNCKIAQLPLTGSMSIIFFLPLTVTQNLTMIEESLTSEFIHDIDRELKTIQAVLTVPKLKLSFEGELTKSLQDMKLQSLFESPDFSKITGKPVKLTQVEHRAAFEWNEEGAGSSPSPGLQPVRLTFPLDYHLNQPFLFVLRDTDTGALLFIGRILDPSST
# UniProt P57780, whole entry: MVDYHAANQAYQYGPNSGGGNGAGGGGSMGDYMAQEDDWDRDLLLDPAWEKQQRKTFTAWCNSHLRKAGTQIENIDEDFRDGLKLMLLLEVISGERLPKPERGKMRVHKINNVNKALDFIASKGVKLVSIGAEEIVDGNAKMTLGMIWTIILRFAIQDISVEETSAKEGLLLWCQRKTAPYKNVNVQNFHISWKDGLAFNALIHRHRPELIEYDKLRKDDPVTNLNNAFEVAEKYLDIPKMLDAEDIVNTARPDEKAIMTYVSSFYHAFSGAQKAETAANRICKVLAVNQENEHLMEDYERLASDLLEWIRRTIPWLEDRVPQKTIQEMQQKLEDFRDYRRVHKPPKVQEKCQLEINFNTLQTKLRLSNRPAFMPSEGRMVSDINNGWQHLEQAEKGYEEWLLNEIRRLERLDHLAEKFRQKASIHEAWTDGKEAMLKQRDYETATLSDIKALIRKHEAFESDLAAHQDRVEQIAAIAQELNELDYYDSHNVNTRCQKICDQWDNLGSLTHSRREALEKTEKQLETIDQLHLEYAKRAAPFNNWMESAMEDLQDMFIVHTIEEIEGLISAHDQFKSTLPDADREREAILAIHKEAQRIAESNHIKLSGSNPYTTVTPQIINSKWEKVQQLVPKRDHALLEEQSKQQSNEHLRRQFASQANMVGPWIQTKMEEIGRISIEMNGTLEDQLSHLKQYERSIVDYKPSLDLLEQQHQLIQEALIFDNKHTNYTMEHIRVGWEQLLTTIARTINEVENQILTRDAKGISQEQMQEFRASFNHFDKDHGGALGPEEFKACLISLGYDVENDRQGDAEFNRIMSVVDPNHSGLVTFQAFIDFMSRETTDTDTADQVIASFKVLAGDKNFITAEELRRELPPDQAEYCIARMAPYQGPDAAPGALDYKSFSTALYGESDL
# UniProt P70245: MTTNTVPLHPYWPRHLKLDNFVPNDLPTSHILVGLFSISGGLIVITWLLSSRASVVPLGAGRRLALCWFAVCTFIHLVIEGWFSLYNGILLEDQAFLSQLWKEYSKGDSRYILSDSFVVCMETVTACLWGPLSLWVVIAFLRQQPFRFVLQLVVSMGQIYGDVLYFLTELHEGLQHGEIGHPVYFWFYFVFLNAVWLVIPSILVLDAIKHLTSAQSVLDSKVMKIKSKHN
# UniProt P61922: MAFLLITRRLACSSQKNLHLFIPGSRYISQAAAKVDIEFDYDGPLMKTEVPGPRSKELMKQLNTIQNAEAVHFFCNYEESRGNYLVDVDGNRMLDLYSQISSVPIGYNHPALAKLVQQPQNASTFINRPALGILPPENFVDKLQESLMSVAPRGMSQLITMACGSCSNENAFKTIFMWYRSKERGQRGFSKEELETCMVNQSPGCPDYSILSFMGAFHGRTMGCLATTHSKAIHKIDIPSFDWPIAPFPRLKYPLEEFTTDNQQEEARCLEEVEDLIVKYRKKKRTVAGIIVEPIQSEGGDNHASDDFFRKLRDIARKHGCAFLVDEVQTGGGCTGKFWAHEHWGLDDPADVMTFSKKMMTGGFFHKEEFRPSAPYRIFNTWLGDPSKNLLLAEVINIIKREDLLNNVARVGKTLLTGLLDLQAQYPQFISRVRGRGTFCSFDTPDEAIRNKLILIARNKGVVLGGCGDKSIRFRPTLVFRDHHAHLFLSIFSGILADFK
# UniProt P58058: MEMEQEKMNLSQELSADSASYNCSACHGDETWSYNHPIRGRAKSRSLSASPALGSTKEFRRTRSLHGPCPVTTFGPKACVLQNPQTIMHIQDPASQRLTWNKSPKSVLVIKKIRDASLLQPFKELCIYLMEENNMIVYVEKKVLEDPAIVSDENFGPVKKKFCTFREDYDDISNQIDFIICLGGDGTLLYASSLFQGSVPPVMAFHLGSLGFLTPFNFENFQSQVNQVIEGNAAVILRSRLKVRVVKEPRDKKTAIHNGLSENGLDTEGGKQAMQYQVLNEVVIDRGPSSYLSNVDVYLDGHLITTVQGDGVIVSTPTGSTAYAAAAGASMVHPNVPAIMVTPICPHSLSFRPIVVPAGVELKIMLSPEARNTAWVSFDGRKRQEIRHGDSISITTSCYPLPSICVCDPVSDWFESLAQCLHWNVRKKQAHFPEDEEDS
# UniProt P58929: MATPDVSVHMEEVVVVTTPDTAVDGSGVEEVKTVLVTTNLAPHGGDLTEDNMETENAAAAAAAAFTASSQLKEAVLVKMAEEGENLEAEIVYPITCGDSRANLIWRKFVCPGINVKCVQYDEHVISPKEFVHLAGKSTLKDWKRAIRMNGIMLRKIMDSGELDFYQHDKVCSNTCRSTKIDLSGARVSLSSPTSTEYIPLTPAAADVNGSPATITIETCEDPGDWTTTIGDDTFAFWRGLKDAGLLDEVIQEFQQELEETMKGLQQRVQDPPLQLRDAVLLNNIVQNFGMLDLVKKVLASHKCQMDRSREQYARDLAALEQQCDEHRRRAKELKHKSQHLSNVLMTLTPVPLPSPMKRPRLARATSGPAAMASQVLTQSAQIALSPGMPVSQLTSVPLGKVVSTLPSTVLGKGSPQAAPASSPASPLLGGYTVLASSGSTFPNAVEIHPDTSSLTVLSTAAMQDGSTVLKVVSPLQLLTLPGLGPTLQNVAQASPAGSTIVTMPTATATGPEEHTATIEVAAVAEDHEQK
# UniProt P97429: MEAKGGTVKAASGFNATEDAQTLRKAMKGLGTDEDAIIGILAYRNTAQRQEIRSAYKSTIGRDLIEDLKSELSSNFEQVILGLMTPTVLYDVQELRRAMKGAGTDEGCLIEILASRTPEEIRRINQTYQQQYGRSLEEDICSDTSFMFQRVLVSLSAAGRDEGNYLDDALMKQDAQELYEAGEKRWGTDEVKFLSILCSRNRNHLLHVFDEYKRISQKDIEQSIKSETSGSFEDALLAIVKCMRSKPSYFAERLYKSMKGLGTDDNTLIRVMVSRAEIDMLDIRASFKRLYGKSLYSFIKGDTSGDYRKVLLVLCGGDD
# UniProt P81117: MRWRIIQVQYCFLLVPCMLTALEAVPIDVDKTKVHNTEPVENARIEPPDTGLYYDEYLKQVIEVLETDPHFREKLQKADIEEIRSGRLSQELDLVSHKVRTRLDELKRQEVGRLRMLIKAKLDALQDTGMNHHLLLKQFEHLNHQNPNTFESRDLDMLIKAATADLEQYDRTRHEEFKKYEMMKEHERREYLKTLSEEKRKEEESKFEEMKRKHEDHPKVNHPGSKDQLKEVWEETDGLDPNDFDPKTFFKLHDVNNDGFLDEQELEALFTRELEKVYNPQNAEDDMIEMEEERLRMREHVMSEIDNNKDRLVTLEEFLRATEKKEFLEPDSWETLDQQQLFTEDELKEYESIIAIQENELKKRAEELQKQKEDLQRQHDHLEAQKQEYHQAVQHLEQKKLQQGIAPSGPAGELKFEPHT
# UniProt P70202: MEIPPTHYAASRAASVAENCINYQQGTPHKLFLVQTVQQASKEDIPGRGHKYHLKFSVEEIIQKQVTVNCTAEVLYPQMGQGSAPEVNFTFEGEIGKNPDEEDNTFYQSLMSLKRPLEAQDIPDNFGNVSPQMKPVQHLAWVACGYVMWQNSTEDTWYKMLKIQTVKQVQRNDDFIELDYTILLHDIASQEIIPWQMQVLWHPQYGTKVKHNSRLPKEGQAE
# UniProt P63073, whole entry: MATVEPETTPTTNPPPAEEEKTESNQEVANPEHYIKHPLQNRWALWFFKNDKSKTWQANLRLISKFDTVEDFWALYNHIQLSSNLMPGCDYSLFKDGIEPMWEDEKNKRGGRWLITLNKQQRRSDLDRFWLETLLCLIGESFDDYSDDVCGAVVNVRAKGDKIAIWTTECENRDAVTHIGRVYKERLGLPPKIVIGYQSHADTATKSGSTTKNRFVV
# UniProt P62077: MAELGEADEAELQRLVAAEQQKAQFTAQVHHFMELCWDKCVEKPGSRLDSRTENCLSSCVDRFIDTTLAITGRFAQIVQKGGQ
# UniProt P97478: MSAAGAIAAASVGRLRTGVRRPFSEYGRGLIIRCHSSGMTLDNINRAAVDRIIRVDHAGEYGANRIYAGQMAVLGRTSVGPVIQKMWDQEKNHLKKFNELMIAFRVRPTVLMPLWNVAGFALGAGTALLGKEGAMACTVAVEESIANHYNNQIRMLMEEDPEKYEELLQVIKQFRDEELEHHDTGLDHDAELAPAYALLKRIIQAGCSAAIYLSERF
# UniProt P63028: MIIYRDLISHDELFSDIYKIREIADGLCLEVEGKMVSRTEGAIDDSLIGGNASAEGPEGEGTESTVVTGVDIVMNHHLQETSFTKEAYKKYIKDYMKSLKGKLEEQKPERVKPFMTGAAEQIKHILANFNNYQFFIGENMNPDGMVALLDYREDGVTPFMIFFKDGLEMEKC
# The list shows a part of the results. Small differences around the control level are noise.
# Compound: CN[C@@H]1C[C@H]2O[C@@](C)([C@@H]1OC)n1c3ccccc3c3c4c(c5c6ccccc6n2c5c31)C(=O)NC4 [staurosporine]
# Assay: log2 fold change of pooled soluble protein (PISA), ligand vs vehicle (log2 ratio); higher = more thermally stabilized
# Conditions: ligand concentration: 20 uM; assay format: PISA pool 52.9/55.5/58.6 C
row,Target,log2 fold change of pooled soluble protein
1,UniProt P70296,-0.108
2,UniProt P97742,-0.0129
3,UniProt P63328,-0.0989
4,UniProt P61458,0.0968
5,UniProt P57716,0.103
6,UniProt P97371,0.0755
7,UniProt P97314,-0.0276
8,UniProt P57776,-0.0555
9,UniProt P58871,0.0303
10,UniProt P56657,0.139
11,UniProt P62869,0.125
12,UniProt P97493,0.504
13,UniProt P97298,0.0678
14,UniProt P70404,-0.176
15,UniProt P70691,0.269
16,UniProt P58771,-0.0853
17,UniProt P57780,0.124
18,UniProt P97384,-0.0715
19,UniProt P70699,0.175

# An excerpt of these results, as tab-separated lines.
row	Target	log2 fold change of pooled soluble protein
1	UniProt P70296	-0.108
2	UniProt P97742	-0.0129
3	UniProt P63328	-0.0989
5	UniProt P57716	0.103
7	UniProt P97314	-0.0276
12	UniProt P97493	0.504
13	UniProt P97298	0.0678
18	UniProt P97384	-0.0715

# Following part.

row,Target,log2 fold change of pooled soluble protein
1,UniProt P70245,0.293
2,UniProt P59383,0.117
3,UniProt P61922,-0.0345
4,UniProt P58058,-0.053
5,UniProt P58929,-0.289
6,UniProt P58252,-0.0237
7,UniProt P97461,-0.0749
8,UniProt P97429,0.0848
9,UniProt P97770,0.207
10,UniProt P81117,-0.123
11,UniProt P70694,-0.102
12,UniProt P58710,-0.179
13,UniProt P70202,-0.321
14,UniProt P63073,-0.0521
15,UniProt P62077,0.0938
16,UniProt P97478,-0.114
17,UniProt P97351,-0.133
18,UniProt P63028,-0.176
19,UniProt P58774,-0.257
